Hit rate of the full screen: of about 330,000 compounds, about 610 (0.18%) were called active. Inconclusive results, whose numbers are uncertain, are shown with a selection of clear calls. The call rests on the fitted dose curve. Where the call is inconclusive, the potency comes from a doubtful curve fit.
Experiment: qHTS of Yeast-based Assay for SARS-CoV PLP; further: nearly all actives have a fitted effect of over 55% in size
Conditions: S. cerevisiae expressing SARS-CoV PLpro; Potency: growth rescue; series mostly up to 32.9 µM
Potency means the concentration at half of the fitted maximal effect.

Q: With COc1ccc(NC(=O)CN2CCN(CC(=O)Nc3ccccc3Cl)CC2)cc1 as the compound, how does the Potency read?
A: Its Potency is inconclusive: 3.16 µM [activator, single point].

Q: With CCc1nc(NCCCN2CCOCC2)c2oc3ccccc3c2n1 as the compound, how does the Potency read?
A: Its Potency is “inactive”.

Q: With CCc1ccc(NC(=O)C2CCCN(S(=O)(=O)c3cccnc3)C2)cc1 (centres undefined) as the compound, how does the Potency read?
A: The Potency was inconclusive: 0.891 µM [activator, full curve].

Q: For Cc1cc(N2CCCCCC2)nc(-c2ccccc2O)n1, which Potency is on record?
A: Its Potency is “inactive”.

Q: For COc1cc(OC)cc(-c2nnc(SCc3c(F)cccc3Cl)o2)c1, which Potency is on record?
A: The Potency was inconclusive: 4.47 µM [activator, single point].

Q: Which Potency does the source give for O=C(CCC(=O)Nc1cccc(Cl)c1)N/N=C/c1cc([N+](=O)[O-])ccc1O here?
A: Its Potency is “inactive”.

Q: Which Potency does the source give for COc1ccc(N(CCCN2C(=O)c3cccc4cccc(c34)C2=O)C(=O)c2cccs2)cc1 here?
A: The Potency was inconclusive: 20 µM [activator, single point].

Q: Which Potency does the source give for COc1cccc2[nH]c3c(N4CCN(Cc5ccc6c(c5)OCO6)CC4)ncnc3c12 here?
A: The Potency was “inactive”.

Q: For COc1ccccc1C(O)(C(=O)NN(C)c1ccccc1)c1ccccc1OC, which Potency is on record?
A: The Potency was inconclusive: 10 µM [activator, partial curve].

Q: With Cc1cc(C(=O)OCC(=O)Nc2nc(-c3ccccc3)cs2)c(C)o1 as the compound, how does the Potency read?
A: The Potency was “inactive”.

Q: For Cc1ccc(-c2nnc(SCc3ccc(C#N)cc3)n2Cc2ccco2)cc1, which Potency is on record?
A: Its Potency is inconclusive: 0.447 µM [activator, full curve].

Q: With Cc1cc(C(=O)N/N=C/c2cc(Cl)cc([N+](=O)[O-])c2O)c2ccccc2n1 as the compound, how does the Potency read?
A: The Potency was active: 2.24 µM.

Q: For O=C(CNC(=O)c1ccc(Br)o1)NCC1CCCO1 (centres undefined), which Potency is on record?
A: Its Potency is inconclusive: 3.98 µM [activator, single point].

Q: Which Potency does the source give for Cc1ccc(C(=O)NC(=S)Nc2ccccc2N2CCCC2)cc1[N+](=O)[O-] here?
A: The Potency was inconclusive: 11.2 µM [activator, single point].

Q: With COc1ccccc1N1CCN(C(=O)C(C)CS(=O)(=O)c2ccc3c(c2)NC(=O)CS3)CC1 (centres undefined) as the compound, how does the Potency read?
A: The Potency was inconclusive: 10 µM [activator, single point].

Q: Which Potency does the source give for COc1ccc(-c2ncccc2OC(=O)C23CC4CC(CC(C4)C2)C3)cc1OC here?
A: Its Potency is inconclusive: 10 µM [activator, partial curve].

Q: For CC(=O)Oc1ccc(C(=O)NCc2ccc3c(c2)OCO3)cc1, which Potency is on record?
A: Its Potency is inconclusive: 11.2 µM [activator, single point].

Q: Which Potency does the source give for Cc1ccc(NC(=O)CN(C)S(=O)(=O)c2cccs2)cc1C here?
A: The Potency was inconclusive: 3.98 µM [activator, single point].

Q: With COc1ccc(-c2nnco2)cc1OC as the compound, how does the Potency read?
A: The Potency was inconclusive: 3.98 µM [activator, single point].

Q: For O=C(CSc1nc2c(c(C(F)(F)F)n1)CCc1ccccc1-2)NCc1ccccc1, which Potency is on record?
A: The Potency was inconclusive: 20 µM [activator, partial curve, poor fit].

Q: With COc1ccc(CCNC(=O)Cn2nnc(-c3ccccc3F)n2)cc1OC as the compound, how does the Potency read?
A: Its Potency is inconclusive: 4.47 µM [activator, single point].

Q: With CC(=O)c1ccc(NC(=O)CSc2ccsc2[N+](=O)[O-])cc1 as the compound, how does the Potency read?
A: Its Potency is “inactive”.

Q: For COC(=O)C1=C(C(=O)OC)SC(=C2C(=S)C(C)(C)N(C(=O)C(C)C)c3ccccc32)S1, which Potency is on record?
A: Its Potency is inconclusive: 1.41 µM [activator, full curve].

Q: Which Potency does the source give for CC(C)(C)c1cc(NC(=O)Nc2ccccc2OC(F)(F)F)no1 here?
A: Its Potency is “inactive”.

Q: For Cn1c(N)c(C(=O)COC(=O)CCc2c[nH]c3ccccc23)c(=O)n(C)c1=O, which Potency is on record?
A: The Potency was active: 3.55 µM.

Q: Which Potency does the source give for Cc1ccc(-c2csc(N/N=C/C=C/c3ccccc3)n2)cc1 here?
A: The Potency was inconclusive: 10 µM [activator, partial curve].

Q: For CCOc1cc(S(=O)(=O)NCc2ccccn2)c(C)cc1C, which Potency is on record?
A: Its Potency is “inactive”.

Q: For CCc1ccc(NC(=O)c2ccc(OC)c([N+](=O)[O-])c2)cc1, which Potency is on record?
A: Its Potency is inconclusive: 4.47 µM [activator, single point].

Q: Which Potency does the source give for CCOC(=O)CN(C(=O)CSc1nnc(-c2cccc(OC)c2)o1)c1ccc(F)cc1 here?
A: Its Potency is inconclusive: 20 µM [activator, single point].

Q: With Cc1cc(NCc2ccncc2)ccc1Br as the compound, how does the Potency read?
A: The Potency was “inactive”.

Q: Which Potency does the source give for CCCCCOc1ccc(/C=c2\sc3nc(=O)c(-c4ccccc4)nn3c2=O)cc1OC here?
A: The Potency was inconclusive: 6.31 µM [activator, partial curve].

Q: For Cc1ccc(-c2cc(C(=O)NCc3cnn(C)c3C)c3cc(Br)ccc3n2)cc1, which Potency is on record?
A: The Potency was inconclusive: 2.82 µM [activator, partial curve].

Q: Which Potency does the source give for CC1CCN(C(=O)Cn2nnc(-c3ccccc3)n2)CC1 here?
A: The Potency was “inactive”.

Q: For CC(C)(C)n1nnnc1C(c1cccs1)N(Cc1cccnc1)Cc1ccccc1Cl (centres undefined), which Potency is on record?
A: The Potency was inconclusive: 10 µM [activator, single point].

Q: For NC(=S)N/N=C/c1ccc(C23CC4CC(CC(C4)C2)C3)cc1, which Potency is on record?
A: Its Potency is inconclusive: 11.2 µM [activator, partial curve].

Q: For Cc1ccc(S(=O)(=O)N2CCOCC2)cc1NC(=O)COC(=O)Cc1cccs1, which Potency is on record?
A: Its Potency is inconclusive: 4.47 µM [activator, single point].

Q: Which Potency does the source give for Cn1c(=O)c2c(nc(CN3CCN(C(=O)c4ccco4)CC3)n2Cc2ccccc2)n(C)c1=O here?
A: The Potency was inconclusive: 20 µM [activator, single point].

Q: Which Potency does the source give for CCOc1ccc(S(=O)(=O)N2CCN(S(=O)(=O)c3ccc(OCC)cc3)C(C)C2)cc1 (centres undefined) here?
A: The Potency was inconclusive: 4.47 µM [activator, single point].

Q: Which Potency does the source give for O=S1(=O)CCOC[C@H](CC2CCCCC2)N1Cc1cccc(F)c1 here?
A: The Potency was “inactive”.

Q: Which Potency does the source give for CCOC(=O)C1CCN(S(=O)(=O)c2cc(C(=O)N3CCCCC3)ccc2OC)CC1 here?
A: The Potency was inconclusive: 3.98 µM [activator, single point].

Q: For CCOC(=O)c1c(S(=O)(=O)NCC(=O)Nc2ccccc2OC)c(C)n(C)c1C, which Potency is on record?
A: The Potency was inconclusive: 2.82 µM [activator, single point].

Q: With C=CCNc1nc(N)c([N+](=O)[O-])c(NCc2ccccc2)n1 as the compound, how does the Potency read?
A: Its Potency is “inactive”.

Q: Which Potency does the source give for Cc1nc2cc(S(=O)(=O)C(F)(F)F)ccc2s1 here?
A: The Potency was inconclusive: 2.51 µM [activator, single point].

Q: For Cc1nn(C)cc1C(C(=O)NC1CCCCC1)N(C(=O)Cc1cccs1)c1ccc(C(C)C)cc1 (centres undefined), which Potency is on record?
A: Its Potency is inconclusive: 3.98 µM [activator, single point].

From PubChem BioAssay AID485353 (National Center for Advancing Translational Sciences (NCATS), 2010)
